{
  "source": "PubChem BioAssay AID504444",
  "about": "(National Center for Advancing Translational Sciences (NCATS), 2011)",
  "note": "Screen size: about 360,000 compounds; about 7,500 (2.1%) were called active. This list was built around the results that the source calls inconclusive (neither active nor inactive); the mix of calls is not that of the screen. Calls follow the shape of the dose curve; as a rule, active = well fitted inhibition curve with a large enough effect; inconclusive = small, poorly fitted or top-dose-only effect, or effect the other way; inactive = flat fitted curve, though single readings scatter. Potencies beside an inconclusive call are fits to weak or partial responses and may not hold up. Potency is read from the fitted curve at half-maximal effect.",
  "data": [
    {"assay": "Nrf2 qHTS screen for inhibitors; also: nearly all actives have a fitted effect of over 60% in size", "settings": "A549 ARE-Fluc reporter, luciferase luminescence, 18-24 h; series mostly up to 46 µM", "outline": "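A549 ARE_Fluc cells, 5000/well, 5% FBS OPTI-MEM; compounds in dose-response, 18-24 h at 37 °C/5% CO2; CellTiter-Fluor viability read (Ex 405/Em 525), then BugLite luciferase luminescence = Nrf2 activity.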", "values": [
      {"smiles": "Cn1c(CCN2CCN(c3ccccn3)CC2)nc2cc(NS(=O)(=O)c3ccc(Cl)cc3)ccc21", "Potency": "inconclusive: 6.51 µM [falling, full curve, poor fit]"},
      {"smiles": "COc1ccc(-c2c(C)nn3c(-c4ccccc4)cc(-c4ccccc4)nc23)cc1", "Potency": "inconclusive: 29.1 µM [activator, single point]"},
      {"smiles": "Cc1ccc(NC(=O)CSc2nc3nccnc3c(=O)n2CCc2c[nH]c3ccccc23)c(C)c1", "Potency": "inconclusive: 29.1 µM [activator, single point]"},
      {"smiles": "CC(C)(C)NC(=O)COC(=O)c1ccc(NC(=O)CC#N)cc1", "Potency": "inconclusive: 23.1 µM [activator, partial curve, poor fit]"},
      {"smiles": "Cn1c(CN2CCN(S(C)(=O)=O)CC2)nc2cc([N+](=O)[O-])ccc21", "Potency": "inconclusive: 29.1 µM [falling, single point]"},
      {"smiles": "Cc1ccc(Cn2cccc2/C=C2/C(=N)N3C=CSC3=NC2=O)cc1", "Potency": "inconclusive: 14.6 µM [falling, partial curve]"},
      {"smiles": "CCCCOc1ccc(C(C)NC(=O)CCS(=O)(=O)Cc2ccc(Cl)cc2)cc1", "note": "(stereo not given)", "Potency": "inconclusive: 2.59 µM [activator, partial curve, poor fit]"},
      {"smiles": "COc1cccc(Cn2c(=O)n(CC3CCC(C(=O)N4CCOCC4)CC3)c(=O)c3sccc32)c1", "note": "(stereo not given)", "Potency": "inconclusive: 29.1 µM [falling, single point]"},
      {"smiles": "Cc1ccc(C2=NNC(c3cccc(F)c3)S2)cc1", "note": "(stereo not given)", "Potency": "inconclusive: 11.6 µM [activator, partial curve]"},
      {"smiles": "COc1ccc2nc(N3CCN(C(=O)c4ccc5ncsc5c4)CC3)sc2c1", "Potency": "inconclusive: 16.4 µM [falling, partial curve, poor fit]"},
      {"smiles": "Cc1cc(C)c2c(n1)SCC(=O)N2CC(=O)Nc1cccc(C)c1C", "Potency": "inconclusive: 23.1 µM [falling, single point]"},
      {"smiles": "COc1ccc2nc3cc(Cl)ccc3c(Nc3cc(C(C)C)c(O)cc3C)c2c1", "Potency": "inconclusive: 23.1 µM [falling, single point]"},
      {"smiles": "C#CCOCCOCCOCCNc1nc(N2CCOCC2)nc(N2CCN(C(=O)CCCCCCCCCCNC(=O)[C@H]([C@@H](C)CC)n3cc(CCCCN=C(N)N)nn3)CC2)n1", "Potency": "inactive"},
      {"smiles": "COc1cccc(C(=O)/C=C/c2ccc(OCC#N)c(OC)c2)c1", "Potency": "inconclusive: 25.9 µM [falling, single point]"},
      {"smiles": "COc1ccc(N(C(=O)Cn2nnc(-c3ccccc3F)n2)C(C(=O)NCC2CCCO2)c2ccc(Cl)cc2)cc1", "note": "(stereo not given)", "Potency": "inconclusive: 6.51 µM [falling, single point]"}
    ]}
  ]
}
